{"source": "patent US20250073165A1", "about": "“OLANZAPINE, COMPOSITIONS THEREOF AND METHODS OF USE THEREOF” (Teva Pharmaceuticals International GmbH, priority 2022, published 2025)", "assay": "Filling of API in vials by auger filling: filling performance", "details": "% of the maximum capacity of the machine"}
{"smiles": "Cc1cc2c(s1)Nc1ccccc1N=C2N1CCN(C)CC1", "note": "[Batch M1-010, 2-methyl-4-(4-methyl-1-piperazinyl)-10H-thieno[2,3-b][1,5]benzodiazepine]", "values": [{"measurement": "Filling speed", "value": 14, "unit": "%"}]}
{"smiles": "Cc1cc2c(s1)Nc1ccccc1N=C2N1CCN(C)CC1", "note": "[Batch M2-121, 2-methyl-4-(4-methyl-1-piperazinyl)-10H-thieno[2,3-b][1,5]benzodiazepine]", "values": [{"measurement": "Filling speed", "value": 14, "unit": "%"}]}
{"smiles": "Cc1cc2c(s1)Nc1ccccc1N=C2N1CCN(C)CC1", "note": "[Batch M6-020, 2-methyl-4-(4-methyl-1-piperazinyl)-10H-thieno[2,3-b][1,5]benzodiazepine]", "values": [{"measurement": "Filling speed", "value": 16, "unit": "%"}]}
{"smiles": "Cc1cc2c(s1)Nc1ccccc1N=C2N1CCN(C)CC1", "note": "[Batch M7-121, 2-methyl-4-(4-methyl-1-piperazinyl)-10H-thieno[2,3-b][1,5]benzodiazepine]", "values": [{"measurement": "Filling speed", "value": 18, "unit": "%"}]}
{"smiles": "Cc1cc2c(s1)Nc1ccccc1N=C2N1CCN(C)CC1", "note": "[Batch S1-220, 2-methyl-4-(4-methyl-1-piperazinyl)-10H-thieno[2,3-b][1,5]benzodiazepine]", "values": [{"measurement": "Filling speed", "value": 14, "unit": "%"}]}
{"smiles": "Cc1cc2c(s1)Nc1ccccc1N=C2N1CCN(C)CC1", "note": "[Batch S1-920, 2-methyl-4-(4-methyl-1-piperazinyl)-10H-thieno[2,3-b][1,5]benzodiazepine]", "values": [{"measurement": "Filling speed", "value": 8, "unit": "%"}]}
{"smiles": "Cc1cc2c(s1)Nc1ccccc1N=C2N1CCN(C)CC1", "note": "[Batch S2-920, 2-methyl-4-(4-methyl-1-piperazinyl)-10H-thieno[2,3-b][1,5]benzodiazepine]", "values": [{"measurement": "Filling speed", "value": 20, "unit": "%"}]}
{"smiles": "Cc1cc2c(s1)Nc1ccccc1N=C2N1CCN(C)CC1", "note": "[Batch S3-020, 2-methyl-4-(4-methyl-1-piperazinyl)-10H-thieno[2,3-b][1,5]benzodiazepine]", "values": [{"measurement": "Filling speed", "value": 12, "unit": "%"}]}
{"smiles": "Cc1cc2c(s1)Nc1ccccc1N=C2N1CCN(C)CC1", "note": "[Batch S3-221, 2-methyl-4-(4-methyl-1-piperazinyl)-10H-thieno[2,3-b][1,5]benzodiazepine]", "values": [{"measurement": "Filling speed", "value": 18, "unit": "%"}]}
